# Data reported in PubChem BioAssay AID2551 (National Center for Advancing Translational Sciences (NCATS), 2010).
# Protein sequences, listed by entry. Tags and fused reporters are not part of them. Lines headed by an entry give the natural chain unless they say otherwise; changes in a name come on top.
# UniProt P51450: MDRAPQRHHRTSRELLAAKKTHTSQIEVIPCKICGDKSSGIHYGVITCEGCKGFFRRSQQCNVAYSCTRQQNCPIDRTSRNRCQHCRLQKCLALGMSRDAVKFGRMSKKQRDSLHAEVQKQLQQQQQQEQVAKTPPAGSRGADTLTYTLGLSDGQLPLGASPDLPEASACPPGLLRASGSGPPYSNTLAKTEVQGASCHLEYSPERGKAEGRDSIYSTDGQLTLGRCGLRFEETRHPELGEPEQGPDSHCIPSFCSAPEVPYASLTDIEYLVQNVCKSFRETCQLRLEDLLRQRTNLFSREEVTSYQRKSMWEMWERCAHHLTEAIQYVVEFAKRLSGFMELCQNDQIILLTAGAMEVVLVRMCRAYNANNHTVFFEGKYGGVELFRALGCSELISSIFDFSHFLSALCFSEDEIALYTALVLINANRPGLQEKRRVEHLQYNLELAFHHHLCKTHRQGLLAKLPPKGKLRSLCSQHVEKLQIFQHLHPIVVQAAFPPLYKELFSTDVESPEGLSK
# About 17,000 (5.5%) of roughly 310,000 compounds were called active. Inconclusive results, whose numbers are uncertain, are shown with a selection of clear calls. The call rests on the fitted dose curve; in most records, active means well fitted inhibition curve with a large enough effect; inconclusive means small, poorly fitted or top-dose-only effect, or effect the other way; inactive means no such curve, though single readings can be large or run the other way. A potency beside an inconclusive call is a rough fit, not a confirmed value.
# Biological target: Nuclear receptor ROR-gamma (Mus musculus) (UniProt P51450)
# Experiment: qHTS for inhibitors of ROR gamma transcriptional activity; further: nearly all actives have a fitted effect of over 60% in size
# Conditions: Drosophila S2 Gal4-RORgamma UAS-luciferase reporter, 20 h; series mostly up to 53.6 µM
# Outline: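 Luciferase reporter read in Schneider cells carrying Gal4-RORγ (mouse) and UAS-Photinus luciferase; cells given compound 1 h before 700 uM copper sulfate induction, then incubated 20 h at ambient temperature.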
# Potency means the concentration at half of the fitted maximal effect.
row,Structure (SMILES),Potency
1,CCN(CC)C(=O)c1cc([N+](=O)[O-])cc2c1-c1ccc([N+](=O)[O-])cc1C2=C(C#N)C#N,"inconclusive: 15.8 µM [inhibitor, single point]"
2,CC1=C(C(=O)N2CCCC(C(=O)c3cccc4ccccc34)C2)OCCO1 (stereo not given),"inconclusive: 31.6 µM [inhibitor, single point]"
3,COC(=O)Cn1c(CN2CCC(Cc3ccccc3)CC2)nc2c1c(=O)n(C)c(=O)n2C,inactive
4,COc1cc(NC2=Nc3cccc4cccc2c34)cc(OC)c1OC,"inconclusive: 35.5 µM [inhibitor, single point]"
5,CCN(C(=O)c1ccccc1F)c1nc(-c2ccc(OC)cc2)cs1,"inconclusive: 22.4 µM [activator, single point]"
6,Cc1ccc(S(=O)(=O)N2CCCC(C(=O)NCC3COCCO3)C2)cc1 (stereo not given),inactive
7,Cn1cc(S(=O)(=O)N2CCCC2)cc1C(=O)NCc1ccccc1Cl,"inconclusive: 15.8 µM [activator, partial curve]"
8,O=C(Nc1ccc(-c2csnn2)cc1)C(Cl)(Cl)Cl,"inconclusive: 12.6 µM [activator, partial curve]"
9,COc1ccc(NS(=O)(=O)c2cc(NC(=O)CNC(=O)c3cccc(OC)c3)ccc2C)cc1,"inconclusive: 15.8 µM [activator, single point]"
10,CC(C)CNC(=S)NNC(=O)c1csc2c1CCC(C)C2 (stereo not given),"inconclusive: 17.8 µM [inhibitor, partial curve, poor fit]"
11,Cc1ccc(Cn2nnc3c(=O)[nH]c(C4CCN(S(=O)(=O)c5ccc(F)cc5)CC4)nc32)cc1,"inconclusive: 3.98 µM [activator, partial curve]"
12,CS(=O)(=O)N1CCCC(C(=O)NCc2ccccn2)C1 (stereo not given),"inconclusive: 15.8 µM [inhibitor, single point]"
13,O=[N+]([O-])c1cccc(CSc2nc3ccccc3[nH]2)c1,"inconclusive: 15.8 µM [activator, partial curve]"
14,CCCn1c(N2CCN(CC(=O)c3c[nH]c4ccccc34)CC2)nc2c1c(=O)[nH]c(=O)n2C,"inconclusive: 11.2 µM [activator, single point]"
15,Cc1onc(-c2ccccc2)c1C(=O)N[C@@H]1C(=O)N2[C@@H]1SC(C)(C)[C@@H]2C(=O)O,inactive
16,O=C1N/C(=N\N=C\c2cccs2)SC1Cc1cccc(Cl)c1 (stereo not given),active: 0.501 µM
17,Cc1cccc(C2CC(c3ccc(Br)cc3)Nc3nc(N)nn32)c1 (stereo not given),inactive
18,COc1ccc(-c2csc(NNC3=NCCCCC3)n2)cc1,"inconclusive: 35.5 µM [inhibitor, single point]"
19,O=C(CSCc1ccccc1Cl)N1CCN(c2ccccn2)CC1,"inconclusive: 25.1 µM [inhibitor, single point]"
20,O=C(C1CCCCC1)N1CCN(S(=O)(=O)c2ccc(Br)cc2)CC1,"inconclusive: 31.6 µM [activator, single point]"
21,CCc1ccc(N(CC(=O)NCc2ccco2)C(=O)CCC(=O)Nc2nccs2)cc1,"inconclusive: 1.41 µM [activator, partial curve, poor fit]"
22,O=C(COc1cc(Cl)c(Cl)cc1Cl)NCCN1CCOCC1,"inconclusive: 0.112 µM [inhibitor, full curve, poor fit]"
23,Cc1ccc(CN2CCSCC2)c(C)c1,"inconclusive: 35.5 µM [activator, single point]"
24,O=C1C2=CC[C@H]3C(=O)N(C[C@@H]4CCCO4)C(=O)[C@@H]3[C@@H]2[C@H](O)[C@@H]2O[C@H]12,"inconclusive: 5.62 µM [inhibitor, single point]"

# Reprinted at random: 2 entries already listed
row,Structure (SMILES),Potency
7,Cn1cc(S(=O)(=O)N2CCCC2)cc1C(=O)NCc1ccccc1Cl,"inconclusive: 15.8 µM [activator, partial curve]"
1,CCN(CC)C(=O)c1cc([N+](=O)[O-])cc2c1-c1ccc([N+](=O)[O-])cc1C2=C(C#N)C#N,"inconclusive: 15.8 µM [inhibitor, single point]"

# (next part)

row,Structure (SMILES),Potency
1,O=C(COC(=O)c1cccs1)Nc1ccccc1Cl,"inconclusive: 14.1 µM [inhibitor, single point]"
2,CC(C)(NO)/C(=N\O)c1ccc(Cl)cc1,"inconclusive: 35.5 µM [inhibitor, single point]"
3,O=C(O)c1[nH]c2ccccc2c1NS(=O)(=O)Cc1ccccc1,inactive
4,Cc1cc(C(=O)CSc2nc3ccccc3[nH]2)c(C)n1C,"inconclusive: 35.5 µM [activator, single point]"
5,O=C(Nc1nccs1)c1cc(-c2ccccn2)nc2c(Cl)cccc12,active: 5.01 µM
6,COc1ccc(NC(=O)/C=C/c2c(Cl)nc3ccccn23)cc1,"inconclusive: 3.98 µM [activator, partial curve, poor fit]"
7,O=C(Nc1ccccn1)c1ccc([N+](=O)[O-])o1,"inconclusive: 11.2 µM [inhibitor, partial curve, poor fit]"
8,CCOc1ccccc1-c1nc(CN2CCCC2c2nccs2)c(C)o1 (stereo not given),"inconclusive: 11.2 µM [inhibitor, partial curve]"
9,Cc1nn(C(C)C(=O)O)c(=O)c2c1sc1ccccc12 (stereo not given),inactive
10,CCOC(=O)/C(=N/Nc1ccc(Cl)cc1)S(=O)(=O)c1ccccc1,"inconclusive: 20 µM [activator, partial curve, poor fit]"
11,Cc1cccc(N2C(=O)c3ccc(C(=O)Nc4ccccn4)cc3C2=O)c1,inactive
12,O=c1[nH]c(CSc2ccccn2)nc2c1oc1ccccc12,"inconclusive: 11.2 µM [inhibitor, single point]"
13,CC1CCN(c2ccccc2N)CC1,"inconclusive: 3.98 µM [inhibitor, partial curve, poor fit]"
14,CC(=O)Nc1ccc(S(=O)(=O)N2CCN(c3nc(C)cc(C)n3)CC2)cc1,"inconclusive: 35.5 µM [inhibitor, single point]"
15,CC(C)(C)C1CCC(=O)N(CCC#N)CC1 (stereo not given),inactive
16,CCc1nc(CN2CCN(c3cc(C(F)(F)F)ccn3)CC2)c(C)[nH]1,inactive
17,NC(=S)Nc1ncc(C(F)(F)F)cc1Cl,active: 7.08 µM
18,COc1ccc(CC(=O)Nc2nc(-c3cccnc3)cs2)cc1,"inconclusive: 11.2 µM [activator, partial curve]"
19,O=C(O)c1ccc(N/N=C/c2ccc(-c3cccc(Cl)c3)o2)cc1,inactive
20,Cc1sc(NC(=O)C2CCCCC2)c(C#N)c1-c1ccccc1,"inconclusive: 0.447 µM [activator, full curve]"
21,Oc1c(Cl)cc(Cl)cc1/C=N/c1nccs1,active: 12.6 µM
22,Cc1sc2ncn(CC(=O)NCC(=O)N(C)C3CCCCC3)c(=O)c2c1C,"inconclusive: 3.16 µM [inhibitor, partial curve, poor fit]"
23,Cc1ccc(N2CCN(S(=O)(=O)N3CCCCC3)CC2)cc1Cl,"inconclusive: 10 µM [activator, partial curve]"
24,Cc1cc(C)cc(C(=O)NC(CC(N)=O)c2ccc(NCC3CC3)c([N+](=O)[O-])c2)c1 (stereo not given),"inconclusive: 0.501 µM [inhibitor, single point]"

# Compounds from the list above with a Cl atom, in the order listed:
row,Structure (SMILES),Potency
7,Cn1cc(S(=O)(=O)N2CCCC2)cc1C(=O)NCc1ccccc1Cl,"inconclusive: 15.8 µM [activator, partial curve]"
8,O=C(Nc1ccc(-c2csnn2)cc1)C(Cl)(Cl)Cl,"inconclusive: 12.6 µM [activator, partial curve]"
16,O=C1N/C(=N\N=C\c2cccs2)SC1Cc1cccc(Cl)c1 (stereo not given),active: 0.501 µM
19,O=C(CSCc1ccccc1Cl)N1CCN(c2ccccn2)CC1,"inconclusive: 25.1 µM [inhibitor, single point]"
22,O=C(COc1cc(Cl)c(Cl)cc1Cl)NCCN1CCOCC1,"inconclusive: 0.112 µM [inhibitor, full curve, poor fit]"
1,O=C(COC(=O)c1cccs1)Nc1ccccc1Cl,"inconclusive: 14.1 µM [inhibitor, single point]"
2,CC(C)(NO)/C(=N\O)c1ccc(Cl)cc1,"inconclusive: 35.5 µM [inhibitor, single point]"
5,O=C(Nc1nccs1)c1cc(-c2ccccn2)nc2c(Cl)cccc12,active: 5.01 µM
6,COc1ccc(NC(=O)/C=C/c2c(Cl)nc3ccccn23)cc1,"inconclusive: 3.98 µM [activator, partial curve, poor fit]"
10,CCOC(=O)/C(=N/Nc1ccc(Cl)cc1)S(=O)(=O)c1ccccc1,"inconclusive: 20 µM [activator, partial curve, poor fit]"
17,NC(=S)Nc1ncc(C(F)(F)F)cc1Cl,active: 7.08 µM
19,O=C(O)c1ccc(N/N=C/c2ccc(-c3cccc(Cl)c3)o2)cc1,inactive
21,Oc1c(Cl)cc(Cl)cc1/C=N/c1nccs1,active: 12.6 µM
23,Cc1ccc(N2CCN(S(=O)(=O)N3CCCCC3)CC2)cc1Cl,"inconclusive: 10 µM [activator, partial curve]"

# Later entries

row,Structure (SMILES),Potency
1,CNC(=S)N1N=C(c2ccc(Br)cc2)CC1c1ccc(N(C)C)cc1 (stereo not given),"inconclusive: 7.08 µM [inhibitor, partial curve]"
2,O=C(CCc1ccccc1)NC(=S)Nc1ccccc1Br,active: 3.55 µM
3,CCOc1ccc(-n2c(SCC(=O)Nc3cc(C)on3)nc3c([nH]c4ccccc43)c2=O)cc1,"inconclusive: 5.62 µM [activator, full curve, poor fit]"
4,Cc1ccc(-c2nc(-c3ccccn3)no2)cc1[N+](=O)[O-],active: 10 µM
5,COc1ccccc1CNC(=O)C1CC(c2cccc([N+](=O)[O-])c2)=NO1 (stereo not given),"inconclusive: 7.08 µM [activator, partial curve]"
6,COc1c(O)c(O)cc2c1oc1c3cc(C)ccc3oc(=O)c21,"inconclusive: 20 µM [inhibitor, single point]"
7,COc1ccc(NC(=O)C(=O)Nc2cccc3cccnc23)c(OC)c1,active: 1.41 µM
8,CCOc1ccc2nc(NC(=O)c3cccnc3)sc2c1,"inconclusive: 12.6 µM [inhibitor, single point]"
9,O=C(N/N=C/c1ccccc1[N+](=O)[O-])c1ccc2c(c1)OCCO2,active: 3.55 µM
10,COc1cc(C2C(C#N)=C(N)N(c3cccnc3)C3=C2C(=O)CC(C)(C)C3)ccc1O (stereo not given),inactive
11,CC1=CC(C)(C)NC(=S)N1C(C)c1ccccc1 (stereo not given),active: 2.24 µM
12,O=C(COC(=O)/C=C/c1cccs1)Nc1nc(-c2ccccc2)cs1,"inconclusive: 35.5 µM [inhibitor, single point]"
13,COc1ccc(C(=O)CCN2CCCC(C)C2)cc1 (stereo not given),"inconclusive: 35.5 µM [inhibitor, single point]"
14,COc1ccc(CCNC(=O)CSc2cccc3cccnc23)cc1OC,active: 1 µM
15,Oc1ccc(N=Nc2ccc3c(c2)OCO3)c2ccccc12,active: 0.126 µM
16,CC(=O)N1CCN(Cc2nc3cc(NC(=O)Cn4nc(C)c5ccccc5c4=O)ccc3n2C)CC1,"inconclusive: 0.0045 µM [activator, full curve, poor fit]"
17,O=C(N/N=C/c1cc2cc3c(cc2nc1Cl)OCCO3)c1ccccc1O,"inconclusive: 31.6 µM [inhibitor, single point]"
18,Cc1ccc(SCCSc2nc(N)cc(=O)[nH]2)cc1,"inconclusive: 22.4 µM [activator, single point]"
19,C=CCOc1ccc(C(=O)N(Cc2ccc(N(C)C)cc2)C2CCS(=O)(=O)C2)cc1 (stereo not given),"inconclusive: 10 µM [activator, partial curve]"
20,Cc1ccc(CNC(=O)c2cc(C)nn2-c2ccccc2)cc1,inactive
21,CC(C)(C)C(=O)NC(=S)Nc1ccccc1N1CCCC1,inactive
22,CCC(=C(c1ccc(OC)cc1)c1ccc(OC)cc1)c1cn(CC(O)CN2CCN(C)CC2)c2ccccc12 (stereo not given),"inconclusive: 17.8 µM [inhibitor, single point]"
